Source: publication PMC9440930

By UniProt entry, the sequences of proteins in these tests, tags left out. Where a name states a change or a piece, a line headed by the entry shows the natural chain unless it says otherwise.
UniProt P09405: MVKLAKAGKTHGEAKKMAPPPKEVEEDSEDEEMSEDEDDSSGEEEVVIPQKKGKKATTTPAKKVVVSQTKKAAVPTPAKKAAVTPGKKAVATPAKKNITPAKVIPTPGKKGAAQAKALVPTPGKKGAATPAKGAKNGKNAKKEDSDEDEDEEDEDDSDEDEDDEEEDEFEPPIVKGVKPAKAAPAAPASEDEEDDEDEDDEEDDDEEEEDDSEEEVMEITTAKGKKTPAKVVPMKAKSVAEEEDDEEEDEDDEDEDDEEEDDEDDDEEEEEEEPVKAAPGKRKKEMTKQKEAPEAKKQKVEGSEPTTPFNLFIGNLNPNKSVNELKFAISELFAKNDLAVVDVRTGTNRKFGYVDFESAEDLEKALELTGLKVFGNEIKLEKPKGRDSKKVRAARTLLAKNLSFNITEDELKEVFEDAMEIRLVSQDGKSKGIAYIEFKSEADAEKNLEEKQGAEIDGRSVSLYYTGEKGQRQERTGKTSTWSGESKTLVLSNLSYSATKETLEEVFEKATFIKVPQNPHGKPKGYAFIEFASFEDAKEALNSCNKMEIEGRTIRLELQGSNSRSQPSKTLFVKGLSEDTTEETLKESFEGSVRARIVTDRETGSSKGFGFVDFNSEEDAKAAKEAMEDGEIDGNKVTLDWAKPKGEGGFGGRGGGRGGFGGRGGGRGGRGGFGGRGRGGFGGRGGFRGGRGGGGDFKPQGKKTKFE
UniProt P62715: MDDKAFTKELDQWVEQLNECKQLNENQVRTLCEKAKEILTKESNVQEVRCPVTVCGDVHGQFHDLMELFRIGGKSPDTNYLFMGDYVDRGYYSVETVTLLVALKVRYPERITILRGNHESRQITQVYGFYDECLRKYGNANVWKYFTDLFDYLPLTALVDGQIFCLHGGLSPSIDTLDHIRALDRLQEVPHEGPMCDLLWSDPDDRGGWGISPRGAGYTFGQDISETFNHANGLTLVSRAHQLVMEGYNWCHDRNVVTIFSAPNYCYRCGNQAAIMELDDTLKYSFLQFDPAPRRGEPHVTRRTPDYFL

Molecular target: nucleolin (endogenous NCL) (mouse (endogenous in RAW 264.7)) (UniProt P09405)
Experiment: co-IP; RAW 264.7 cells stimulated with LPS for 12 h; lysed with 1% NP-40; protein G-Sepharose, washed with 0.1% NP-40; immunoblot

binding: binds
Substance: protein phosphatase 2A (PP2A), catalytic subunit PP2AC (from UniProt P62715) (enzyme)

No constants are given. Whether binding was seen depends on the method and setting. In cells and extracts the contact can be indirect. A result given as binding can be weak or reduced; the word gives no strength.
